Measurements reported in paper PMC8954794, “NMR Structure and Biophysical Characterization of Thermophilic Single-Stranded DNA Binding Protein from Sulfolobus Solfataricus”.
Weaker means in comparison with the reference protein, sequence or condition of that experiment. Tags and fusion partners may be left off the protein sequences shown.

Target: T1, SsoSSB12-114 del1-11 (Sulfolobus solfataricus) (UniProt Q97W73)
T1 sequence (looked up): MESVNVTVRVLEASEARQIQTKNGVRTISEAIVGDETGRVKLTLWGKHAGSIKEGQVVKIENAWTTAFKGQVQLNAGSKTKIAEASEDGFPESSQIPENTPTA
Assay: NMR HSQC titration
Settings: 25 C, some chemical shift changes on ssDNA addition, authors conclude DNA binding dramatically affected; Buffer A: 100 mM NaCl, 20 mM MES pH 6.5; NMR with 10% D2O at 25 and 50 C (SsoSSB12-114 at 25 C only); recombinant protein; residues 12-114; single-stranded DNA

Sequence: AAAAAAAAAAAAAAA [dA(15)]
- binding result: binds more weakly
